Among the data in paper PMC5923212 are binding values, retold here.

By UniProt entry, the sequences of proteins in these tests, tags left out. Where a name states a change or a piece, a line headed by the entry shows the natural chain unless it says otherwise.
UniProt Q5SQI0: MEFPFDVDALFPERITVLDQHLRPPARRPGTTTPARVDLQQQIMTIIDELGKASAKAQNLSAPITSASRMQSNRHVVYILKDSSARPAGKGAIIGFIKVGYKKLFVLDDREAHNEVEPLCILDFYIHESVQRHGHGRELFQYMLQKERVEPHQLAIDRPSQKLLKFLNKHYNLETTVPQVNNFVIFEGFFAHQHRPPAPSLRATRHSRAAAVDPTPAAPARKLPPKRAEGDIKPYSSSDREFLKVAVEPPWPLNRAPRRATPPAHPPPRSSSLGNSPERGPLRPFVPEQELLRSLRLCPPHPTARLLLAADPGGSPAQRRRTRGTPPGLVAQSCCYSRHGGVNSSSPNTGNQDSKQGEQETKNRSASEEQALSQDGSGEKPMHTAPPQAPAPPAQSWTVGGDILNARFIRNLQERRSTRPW

Substitutions are numbered along the chain they refer to. These are yes or no findings as the source states them, for the method shown. For part of these data: A result given as binding can be weak or reduced; the word gives no strength. For part of these data: Binding seen in cells or lysates may run through a third protein. For part of these data: Sequences can lack the tags named with a protein.

In one experiment the target is T1, Flag-TAK1 WT (UniProt O43318).
T1 sequence: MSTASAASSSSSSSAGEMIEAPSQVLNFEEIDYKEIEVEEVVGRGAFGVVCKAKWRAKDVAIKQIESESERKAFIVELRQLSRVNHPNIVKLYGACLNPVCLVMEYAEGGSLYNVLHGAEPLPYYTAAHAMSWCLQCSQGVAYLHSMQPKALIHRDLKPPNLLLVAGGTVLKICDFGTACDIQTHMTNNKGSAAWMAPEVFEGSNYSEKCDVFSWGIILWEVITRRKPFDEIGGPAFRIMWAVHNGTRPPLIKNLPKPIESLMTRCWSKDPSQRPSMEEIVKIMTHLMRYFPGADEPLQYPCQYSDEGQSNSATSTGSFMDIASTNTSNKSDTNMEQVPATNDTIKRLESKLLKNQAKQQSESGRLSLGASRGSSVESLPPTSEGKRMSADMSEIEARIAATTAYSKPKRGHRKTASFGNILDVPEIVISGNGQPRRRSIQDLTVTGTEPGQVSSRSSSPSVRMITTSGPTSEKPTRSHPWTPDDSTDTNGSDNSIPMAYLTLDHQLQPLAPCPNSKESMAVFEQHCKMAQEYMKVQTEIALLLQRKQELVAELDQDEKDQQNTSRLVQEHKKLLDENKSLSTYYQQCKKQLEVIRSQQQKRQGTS
As to the kind of experiment: co-IP; COS-7 cells transfected; immunoprecipitation with Flag antibody; lysis buffer 20 mM HEPES pH 7.4, 150 mM NaCl, 5 mM NaF, 1% NP-40; 6 h at 4 C; also after SB431542 (30 μM) or (5Z)-7-Oxozeaenol (20 μM) for 30 min.

Experiment [1] has as its target T2, Flag-TAK1 kinase-dead (K63W) (UniProt O43318).
T2 sequence: T1 sequence with K63W
Described as above.

Experiment [2] concerns the target T3, purified biotin-labeled TAK1 (UniProt O43318).
T3 sequence (chain, biotin label (site not stated)): T1 sequence
As to the kind of experiment: pull-down; purified biotin-labeled TAK1 immobilized on streptavidin agarose, co-incubated with purified αTAT1; negative control with non-biotinylated TAK1; both purified.

Another experiment deals with HA-αTAT1-Δ196 (UniProt Q5SQI0). Description: co-IP; COS-7 cells transfected; immunoprecipitation with HA antibody; lysis buffer 20 mM HEPES pH 7.4, 150 mM NaCl, 5 mM NaF, 1% NP-40; 6 h at 4 C.
Another experiment addresses HA-αTAT1-Δ301. The description is as above.
The target in the next experiment is HA-αTAT1 WT. The description is as above.

Consider HA-αTAT1 WT (enzyme), for which the binding result (with Flag-TAK1 WT; in experiment [1]) was “binds” in each case.

On to purified αTAT1 (enzyme), for which the binding entry in experiment [2] was “binds”.

B1: Flag-TAK1 WT (enzyme, UniProt O43318 1-606)
chain: T1 sequence
Regarding B1, the binding entry with HA-αTAT1-Δ196 is listed as “no binding”; with HA-αTAT1-Δ301, “binds”; with HA-αTAT1 WT, “binds”.
